In PMC4488936:
Results are given in words; binding and its absence hold for the method and conditions named. In cells and extracts the contact can be indirect. Some results given as binding are weak or reduced against the parent protein; the word gives no strength. Blank lines part the entries; values can stand above or below the molecule they belong to.

The chains behind the UniProt entries cited, without tags or fusion partners.
UniProt P25439: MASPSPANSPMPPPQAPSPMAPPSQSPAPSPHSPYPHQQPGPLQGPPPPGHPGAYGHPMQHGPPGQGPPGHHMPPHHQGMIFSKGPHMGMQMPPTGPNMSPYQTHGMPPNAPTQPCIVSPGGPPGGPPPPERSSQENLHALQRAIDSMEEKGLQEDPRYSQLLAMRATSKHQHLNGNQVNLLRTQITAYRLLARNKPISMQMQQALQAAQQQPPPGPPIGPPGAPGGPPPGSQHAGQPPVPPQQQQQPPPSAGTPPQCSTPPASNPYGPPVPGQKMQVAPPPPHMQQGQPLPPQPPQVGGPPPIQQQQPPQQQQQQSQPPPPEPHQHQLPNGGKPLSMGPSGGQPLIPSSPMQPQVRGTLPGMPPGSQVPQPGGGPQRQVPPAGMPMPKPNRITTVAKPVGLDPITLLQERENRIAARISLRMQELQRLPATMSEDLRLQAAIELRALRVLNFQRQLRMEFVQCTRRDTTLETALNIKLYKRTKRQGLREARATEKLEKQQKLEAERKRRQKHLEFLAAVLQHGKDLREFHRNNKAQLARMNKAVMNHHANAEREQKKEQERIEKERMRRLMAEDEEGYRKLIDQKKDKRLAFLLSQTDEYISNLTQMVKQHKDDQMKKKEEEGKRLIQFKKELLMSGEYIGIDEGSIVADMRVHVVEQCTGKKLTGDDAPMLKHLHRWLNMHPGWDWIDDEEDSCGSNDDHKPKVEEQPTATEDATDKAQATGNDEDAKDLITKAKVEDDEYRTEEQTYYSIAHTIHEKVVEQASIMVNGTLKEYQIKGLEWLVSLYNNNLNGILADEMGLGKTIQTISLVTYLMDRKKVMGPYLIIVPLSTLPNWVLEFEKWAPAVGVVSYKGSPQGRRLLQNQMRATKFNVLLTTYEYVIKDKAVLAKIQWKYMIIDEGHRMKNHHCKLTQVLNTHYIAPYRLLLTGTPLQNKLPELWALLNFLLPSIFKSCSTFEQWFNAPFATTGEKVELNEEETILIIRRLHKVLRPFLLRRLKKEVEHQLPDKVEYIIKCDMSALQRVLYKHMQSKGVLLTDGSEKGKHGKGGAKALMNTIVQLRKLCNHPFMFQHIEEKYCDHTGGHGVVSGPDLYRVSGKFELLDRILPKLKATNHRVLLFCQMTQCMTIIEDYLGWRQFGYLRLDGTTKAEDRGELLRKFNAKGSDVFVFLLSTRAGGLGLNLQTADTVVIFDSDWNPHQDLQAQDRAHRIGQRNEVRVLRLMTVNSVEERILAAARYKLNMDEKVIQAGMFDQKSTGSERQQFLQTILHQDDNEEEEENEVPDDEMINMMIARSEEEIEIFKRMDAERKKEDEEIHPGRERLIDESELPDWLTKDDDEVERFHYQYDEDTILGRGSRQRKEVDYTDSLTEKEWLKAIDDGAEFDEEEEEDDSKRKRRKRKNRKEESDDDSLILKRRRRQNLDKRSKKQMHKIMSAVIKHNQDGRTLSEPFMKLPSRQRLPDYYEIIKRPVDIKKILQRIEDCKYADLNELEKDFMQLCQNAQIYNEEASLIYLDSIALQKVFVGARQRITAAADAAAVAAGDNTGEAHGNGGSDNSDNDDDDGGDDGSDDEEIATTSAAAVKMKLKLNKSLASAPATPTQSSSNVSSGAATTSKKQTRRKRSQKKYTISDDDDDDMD
UniProt O61735: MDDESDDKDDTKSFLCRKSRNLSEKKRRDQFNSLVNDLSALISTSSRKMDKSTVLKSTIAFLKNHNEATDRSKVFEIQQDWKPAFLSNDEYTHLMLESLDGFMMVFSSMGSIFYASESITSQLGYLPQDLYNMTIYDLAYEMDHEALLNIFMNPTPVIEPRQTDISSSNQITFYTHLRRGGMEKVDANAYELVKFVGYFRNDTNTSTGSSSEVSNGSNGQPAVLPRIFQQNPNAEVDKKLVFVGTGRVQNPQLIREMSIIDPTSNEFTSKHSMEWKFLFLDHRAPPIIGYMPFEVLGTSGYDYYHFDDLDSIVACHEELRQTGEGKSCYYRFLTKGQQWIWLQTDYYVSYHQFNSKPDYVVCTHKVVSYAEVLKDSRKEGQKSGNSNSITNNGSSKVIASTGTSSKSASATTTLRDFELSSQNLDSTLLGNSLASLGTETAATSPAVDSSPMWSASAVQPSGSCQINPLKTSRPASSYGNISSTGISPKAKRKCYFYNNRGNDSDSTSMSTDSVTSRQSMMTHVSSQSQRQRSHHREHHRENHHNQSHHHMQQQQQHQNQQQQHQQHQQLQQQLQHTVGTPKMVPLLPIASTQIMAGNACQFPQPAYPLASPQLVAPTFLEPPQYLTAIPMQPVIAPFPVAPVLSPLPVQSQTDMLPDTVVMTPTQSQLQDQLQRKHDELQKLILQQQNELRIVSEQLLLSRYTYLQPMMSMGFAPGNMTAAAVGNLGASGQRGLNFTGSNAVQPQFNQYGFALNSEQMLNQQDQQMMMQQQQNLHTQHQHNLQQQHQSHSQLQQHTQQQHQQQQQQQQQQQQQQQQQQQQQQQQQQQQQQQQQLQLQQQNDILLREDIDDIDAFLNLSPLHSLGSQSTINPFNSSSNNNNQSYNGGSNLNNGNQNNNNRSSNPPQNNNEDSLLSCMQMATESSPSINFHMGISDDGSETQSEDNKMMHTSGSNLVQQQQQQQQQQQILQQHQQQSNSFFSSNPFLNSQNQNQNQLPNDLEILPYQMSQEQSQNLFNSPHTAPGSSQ

Tests used:
[1] = target: BRM carrying a 3X FLAG epitope tag, transgene UAS-BRM^RFL (3XFLAG-6XHis-brm in pUAST) (Drosophila melanogaster) (UniProt P25439); assay: co-IP; head extracts (RBS buffer, sonicated, pre-cleared) of flies expressing FLAG-tagged BRM in tim-expressing cells, collected at time points (ZT) of an LD cycle; IP with anti-FLAG, GammaBind Plus sepharose, washes in RBS buffer; western blot
[2] = target: Brahma (BRM) with C-terminal 3XFLAG-6XHis (pAc-brm-3XFLAG-6XHis) (Drosophila melanogaster) (UniProt P25439); assay: co-IP; S2 cells co-transfected with BRM-3XFLAG-6XHis and CLK-V5-His, TIM-3HA or PER-V5-His; M-RIPA extract; reciprocal IPs with anti-FLAG M2 gel, anti-V5 or anti-HA agarose, 4 h at 4 C; washes in M-RIPA with 300 mM NaCl; western blot

binding [1]: binds
Molecule: CLOCK (CLK), endogenous in fly heads (from UniProt O61735 1-1027)

binding [2]: binds
Molecule: CLOCK (CLK) with V5-His (pAc-clk-V5-His) (from UniProt O61735 1-1027)

binding [2]: binds
B1: TIMELESS (TIM) with 3HA (pAc-tim-3HA) (protein, UniProt P49021 1-1398)
chain: MDWLLATPQLYSAFSSLGCLEGDTYVVNPNALAILEEINYKLTYEDQTLRTFRRAIGFGQNVRSDLIPLLENAKDDAVLESVIRILVNLTVPVECLFSVDVMYRTDVGRHTIFELNKLLYTSKEAFTEARSTKSVVEYMKHILESDPKLSPHKCDQINNCLLLLRNILHIPETHAHCVMPMMQSMPHGISMQNTILWNLFIQSIDKLLLYLMTCPQRAFWGVTMVQLIALIYKDQHVSTLQKLLSLWFEASLSESSEDNESNTSPPKQGSGDSSPMLTSDPTSDSSDNGSNGRGMGGGMREGTAATLQEVSRKGQEYQNAMARVPADKPDGSEEASDMTGNDSEQPGSPEQSQPAGESMDDGDYEDQRHRQLNEHGEEDEDEDEVEEEEYLQLGPASEPLNLTQQPADKVNNTTNPTSSAPQGCLGNEPFKPPPPLPVRASTSAHAQMQKFNESSYASHVSAVKLGQKSPHAGQLQLTKGKCCPQKRECPSSQSELSDCGYGTQVENQESISTSSNDDDGPQGKPQHQKPPCNTKPRNKPRTIMSPMDKKELRRKKLVKRSKSSLINMKGLVQHTPTDDDISNLLKEFTVDFLLKGYSYLVEELHMQLLSNAKVPIDTSHFFWLVTYFLKFAAQLELDMEHIDTILTYDVLSYLTYEGVSLCEQLELNARQEGSDLKPYLRRMHLVVTAIREFLQAIDTYNKVTHLNEDDKAHLRQLQLQISEMSDLRCLFVLLLRRFNPSIHSKQYLQDLVVTNHILLLILDSSAKLGGCQTIRLSEHITQFATLEVMHYYGILLEDFNNNGEFVNDCIFTMMHHIGGDLGQIGVLFQPIILKTYSRIWEADYELCDDWSDLIEYVIHKFMNTPPKSPLTIPTTSLTEMTKEHNQEHTVCSWSQEEMDTLYWYYVQSKKNNDIVGKIVKLFSNNGNKLKTRISIIQQLLQQDIITLLEYDDLMKFEDAEYQRTLLTTPTSATTESGIEIKECAYGKPSDDVQILLDLIIKENKAQHLLWLQRILIECCFVKLTLRSGLKVPEGDHIMEPVAYHCICKQKSIPVVQWNNEQSTTMLYQPFVLLLHKLGIQLPADAGSIFARIPDYWTPETMYGLAKKLGPLDKLNLKFDASELEDATASSPSRYHHTGPRNSLSSVSSLDVDLGDTEELALIPEVDAAVEKAHAMASTPSPSEIFAVPKTKHCNSIIRYTPDPTPPVPNWLQLVMRSKCNHRTGPSGDPSDCIGSSSTTVDDEGFGKSISAATSQAASTSMSTVNPTTTLSLNMLNTFMGSHNENSSSSGCGGTVSSLSMVALMSTGAAGGGGNTSGLEMDVDASMKSSFERLEVNGSHFSRANNLDQEYSAMVASVYEKEKELNSDNVSLASDLTRMYVSDEDDRLERTEIRVPHYH

binding [1]: binds
B2: TIMELESS (TIM), endogenous in fly heads (protein, UniProt P49021 1-1398)
chain: B1 chain
